Test results taken from publication PMC10347840.
These are yes or no findings as the source states them, for the method shown. In cells and extracts the contact can be indirect. Some entries that bind do so weakly or less than the wild type.

Protein sequences, listed by entry. Tags and fused reporters are not part of them.
UniProt Q12888: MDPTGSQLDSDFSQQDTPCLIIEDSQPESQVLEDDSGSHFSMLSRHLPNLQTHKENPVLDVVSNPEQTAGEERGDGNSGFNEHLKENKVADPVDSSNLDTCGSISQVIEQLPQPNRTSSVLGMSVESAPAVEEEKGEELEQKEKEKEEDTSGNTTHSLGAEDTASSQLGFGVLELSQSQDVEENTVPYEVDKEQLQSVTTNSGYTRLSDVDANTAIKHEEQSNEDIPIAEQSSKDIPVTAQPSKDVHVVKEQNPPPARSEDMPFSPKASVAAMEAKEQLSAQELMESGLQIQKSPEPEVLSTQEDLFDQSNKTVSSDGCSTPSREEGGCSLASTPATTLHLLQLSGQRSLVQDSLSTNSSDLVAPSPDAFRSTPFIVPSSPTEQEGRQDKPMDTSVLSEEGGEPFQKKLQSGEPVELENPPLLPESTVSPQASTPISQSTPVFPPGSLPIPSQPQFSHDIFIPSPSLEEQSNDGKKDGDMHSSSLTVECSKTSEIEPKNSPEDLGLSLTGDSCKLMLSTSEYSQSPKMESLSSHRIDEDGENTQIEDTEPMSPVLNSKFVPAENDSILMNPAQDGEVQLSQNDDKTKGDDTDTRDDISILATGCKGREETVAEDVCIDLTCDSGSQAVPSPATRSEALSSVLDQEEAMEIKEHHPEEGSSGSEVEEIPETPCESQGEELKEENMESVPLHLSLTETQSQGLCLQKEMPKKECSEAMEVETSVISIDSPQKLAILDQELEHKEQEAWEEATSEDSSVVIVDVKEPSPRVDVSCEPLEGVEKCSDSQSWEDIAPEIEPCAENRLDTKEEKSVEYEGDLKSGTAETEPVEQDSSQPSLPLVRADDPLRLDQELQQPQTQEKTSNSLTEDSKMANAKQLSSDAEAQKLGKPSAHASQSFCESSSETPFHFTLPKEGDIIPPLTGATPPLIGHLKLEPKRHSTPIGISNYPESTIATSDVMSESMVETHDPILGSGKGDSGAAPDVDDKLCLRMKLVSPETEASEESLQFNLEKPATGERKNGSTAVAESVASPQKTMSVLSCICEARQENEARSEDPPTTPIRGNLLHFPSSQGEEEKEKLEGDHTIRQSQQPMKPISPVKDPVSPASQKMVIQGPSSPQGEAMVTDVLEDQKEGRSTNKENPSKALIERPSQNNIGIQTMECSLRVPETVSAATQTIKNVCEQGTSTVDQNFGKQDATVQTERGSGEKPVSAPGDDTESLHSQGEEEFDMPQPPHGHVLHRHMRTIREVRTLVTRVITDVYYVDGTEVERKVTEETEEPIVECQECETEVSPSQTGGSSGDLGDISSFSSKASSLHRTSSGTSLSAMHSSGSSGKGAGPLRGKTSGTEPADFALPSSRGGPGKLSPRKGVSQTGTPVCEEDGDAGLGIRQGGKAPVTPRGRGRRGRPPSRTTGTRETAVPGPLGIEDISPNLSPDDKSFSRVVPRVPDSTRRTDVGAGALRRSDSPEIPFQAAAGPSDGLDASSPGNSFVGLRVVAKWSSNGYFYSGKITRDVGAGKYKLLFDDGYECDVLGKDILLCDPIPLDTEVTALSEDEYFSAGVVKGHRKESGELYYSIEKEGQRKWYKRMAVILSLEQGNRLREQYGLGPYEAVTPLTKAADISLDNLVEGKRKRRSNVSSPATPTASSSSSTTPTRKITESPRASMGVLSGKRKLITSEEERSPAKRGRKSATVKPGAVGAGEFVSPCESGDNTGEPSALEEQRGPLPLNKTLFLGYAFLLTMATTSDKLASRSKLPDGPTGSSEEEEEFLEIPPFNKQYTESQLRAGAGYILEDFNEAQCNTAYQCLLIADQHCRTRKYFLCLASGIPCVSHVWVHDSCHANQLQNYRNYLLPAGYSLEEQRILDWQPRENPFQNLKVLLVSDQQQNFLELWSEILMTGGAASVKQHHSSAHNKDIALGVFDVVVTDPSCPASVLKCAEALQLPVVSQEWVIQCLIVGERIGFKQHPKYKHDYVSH

Target: 53BP1 (human (endogenous in NKYS)) (UniProt Q12888)
Assay: co-IP; NKYS cell lysate (1 mg) in IP lysis buffer, antibody overnight at 4 °C, agarose beads 1 h at RT, five washes, SDS-PAGE and blot; which protein was precipitated is not given

- binding: binds
B1: LMO2 (protein, UniProt P25791 1-158)
chain: MSSAIERKSLDPSEEPVDEVLQIPPSLLTCGGCQQNIGDRYFLKAIDQYWHEDCLSCDLCGCRLGEVGRRLYYKLGRKLCRRDYLRLFGQDGLCASCDKRIRAYEMTMRVKDKVYHLECFKCAACQKHFCVGDRYLLINSDIVCEQDIYEWTKINGMI
